This is one part of the list. Most values lie at the level of the controls, where differences are scatter.

Protein sequences, listed by entry. Tags and fused reporters are not part of them. Lines headed by an entry give the natural chain unless they say otherwise; changes in a name come on top.
UniProt Q9UI12, whole entry: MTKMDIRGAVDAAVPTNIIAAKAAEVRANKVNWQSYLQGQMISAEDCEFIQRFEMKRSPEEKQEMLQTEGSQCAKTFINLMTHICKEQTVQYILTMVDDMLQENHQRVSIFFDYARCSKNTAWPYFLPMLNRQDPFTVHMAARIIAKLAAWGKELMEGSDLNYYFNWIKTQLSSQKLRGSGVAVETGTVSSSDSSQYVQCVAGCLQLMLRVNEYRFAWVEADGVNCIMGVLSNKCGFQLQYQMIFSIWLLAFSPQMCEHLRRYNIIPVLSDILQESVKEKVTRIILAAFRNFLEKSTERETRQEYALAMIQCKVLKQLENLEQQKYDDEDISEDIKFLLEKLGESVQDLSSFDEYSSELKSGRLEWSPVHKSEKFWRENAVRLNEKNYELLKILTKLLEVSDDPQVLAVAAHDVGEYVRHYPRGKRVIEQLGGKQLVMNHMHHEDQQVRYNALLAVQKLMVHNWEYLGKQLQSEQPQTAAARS
UniProt Q9P253: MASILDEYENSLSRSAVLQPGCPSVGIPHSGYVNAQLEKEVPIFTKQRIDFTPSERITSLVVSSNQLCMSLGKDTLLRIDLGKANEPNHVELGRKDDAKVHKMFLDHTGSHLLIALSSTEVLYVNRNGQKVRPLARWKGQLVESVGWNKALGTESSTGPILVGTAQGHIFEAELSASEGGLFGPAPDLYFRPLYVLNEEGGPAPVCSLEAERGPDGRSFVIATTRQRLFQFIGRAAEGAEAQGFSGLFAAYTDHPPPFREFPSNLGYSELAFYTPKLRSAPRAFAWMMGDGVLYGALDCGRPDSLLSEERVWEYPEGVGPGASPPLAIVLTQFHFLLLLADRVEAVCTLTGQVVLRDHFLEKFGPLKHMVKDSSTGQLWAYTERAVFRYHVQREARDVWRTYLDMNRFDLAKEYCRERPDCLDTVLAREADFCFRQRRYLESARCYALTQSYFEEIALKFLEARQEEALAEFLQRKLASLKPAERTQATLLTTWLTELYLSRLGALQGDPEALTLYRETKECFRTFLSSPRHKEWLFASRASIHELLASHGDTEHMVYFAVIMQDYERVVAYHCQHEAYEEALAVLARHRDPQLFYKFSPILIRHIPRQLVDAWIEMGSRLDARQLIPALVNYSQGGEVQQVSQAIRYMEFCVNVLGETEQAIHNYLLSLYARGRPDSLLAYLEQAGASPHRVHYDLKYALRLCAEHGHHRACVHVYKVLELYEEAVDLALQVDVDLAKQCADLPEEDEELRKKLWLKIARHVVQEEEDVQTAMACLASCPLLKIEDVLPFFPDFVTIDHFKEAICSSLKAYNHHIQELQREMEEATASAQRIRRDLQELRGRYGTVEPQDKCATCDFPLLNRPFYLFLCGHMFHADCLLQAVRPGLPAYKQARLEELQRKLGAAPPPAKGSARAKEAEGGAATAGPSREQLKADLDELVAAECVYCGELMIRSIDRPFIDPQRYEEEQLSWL
UniProt Q9NZJ6: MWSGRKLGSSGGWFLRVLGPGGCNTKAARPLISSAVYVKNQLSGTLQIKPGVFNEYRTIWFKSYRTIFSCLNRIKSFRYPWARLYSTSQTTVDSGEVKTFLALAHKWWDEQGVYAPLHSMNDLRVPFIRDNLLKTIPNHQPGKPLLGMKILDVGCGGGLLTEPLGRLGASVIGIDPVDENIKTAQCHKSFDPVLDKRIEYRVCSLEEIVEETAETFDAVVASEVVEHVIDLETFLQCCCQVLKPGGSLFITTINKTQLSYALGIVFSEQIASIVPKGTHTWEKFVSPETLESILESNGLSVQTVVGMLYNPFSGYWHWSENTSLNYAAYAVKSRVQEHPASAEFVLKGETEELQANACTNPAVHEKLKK
UniProt Q9UHK0: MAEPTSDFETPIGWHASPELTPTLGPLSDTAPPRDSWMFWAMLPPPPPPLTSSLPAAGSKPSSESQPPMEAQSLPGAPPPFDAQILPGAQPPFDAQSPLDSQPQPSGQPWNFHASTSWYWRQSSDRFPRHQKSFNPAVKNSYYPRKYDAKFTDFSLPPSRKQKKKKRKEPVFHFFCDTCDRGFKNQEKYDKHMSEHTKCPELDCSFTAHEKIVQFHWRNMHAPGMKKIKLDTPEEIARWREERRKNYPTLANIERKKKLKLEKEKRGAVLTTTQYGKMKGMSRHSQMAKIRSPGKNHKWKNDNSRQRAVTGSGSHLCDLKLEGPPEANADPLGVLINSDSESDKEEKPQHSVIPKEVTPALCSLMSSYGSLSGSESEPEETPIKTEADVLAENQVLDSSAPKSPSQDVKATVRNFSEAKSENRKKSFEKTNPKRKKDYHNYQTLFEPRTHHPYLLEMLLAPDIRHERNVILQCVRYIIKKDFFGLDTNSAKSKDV
UniProt Q9UHR4: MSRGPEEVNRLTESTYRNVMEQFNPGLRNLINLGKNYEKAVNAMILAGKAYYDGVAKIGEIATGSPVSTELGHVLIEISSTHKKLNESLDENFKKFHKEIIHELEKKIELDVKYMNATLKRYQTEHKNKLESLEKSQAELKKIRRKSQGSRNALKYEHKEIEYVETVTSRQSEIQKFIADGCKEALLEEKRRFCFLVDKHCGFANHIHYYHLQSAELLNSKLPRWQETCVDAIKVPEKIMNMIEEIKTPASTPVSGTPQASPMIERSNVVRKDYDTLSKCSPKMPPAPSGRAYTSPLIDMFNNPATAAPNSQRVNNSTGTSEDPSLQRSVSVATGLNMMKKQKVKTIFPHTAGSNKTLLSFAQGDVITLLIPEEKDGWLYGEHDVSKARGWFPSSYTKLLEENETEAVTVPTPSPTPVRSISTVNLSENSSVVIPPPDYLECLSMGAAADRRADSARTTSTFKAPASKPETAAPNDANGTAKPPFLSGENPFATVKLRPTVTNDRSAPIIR
UniProt Q9UK41: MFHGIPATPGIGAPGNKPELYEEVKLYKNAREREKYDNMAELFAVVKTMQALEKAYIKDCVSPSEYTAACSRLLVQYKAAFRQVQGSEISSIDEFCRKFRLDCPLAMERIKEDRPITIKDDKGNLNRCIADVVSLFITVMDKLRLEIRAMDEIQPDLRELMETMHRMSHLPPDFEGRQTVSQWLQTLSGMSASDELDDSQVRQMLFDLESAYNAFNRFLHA
UniProt Q9P265: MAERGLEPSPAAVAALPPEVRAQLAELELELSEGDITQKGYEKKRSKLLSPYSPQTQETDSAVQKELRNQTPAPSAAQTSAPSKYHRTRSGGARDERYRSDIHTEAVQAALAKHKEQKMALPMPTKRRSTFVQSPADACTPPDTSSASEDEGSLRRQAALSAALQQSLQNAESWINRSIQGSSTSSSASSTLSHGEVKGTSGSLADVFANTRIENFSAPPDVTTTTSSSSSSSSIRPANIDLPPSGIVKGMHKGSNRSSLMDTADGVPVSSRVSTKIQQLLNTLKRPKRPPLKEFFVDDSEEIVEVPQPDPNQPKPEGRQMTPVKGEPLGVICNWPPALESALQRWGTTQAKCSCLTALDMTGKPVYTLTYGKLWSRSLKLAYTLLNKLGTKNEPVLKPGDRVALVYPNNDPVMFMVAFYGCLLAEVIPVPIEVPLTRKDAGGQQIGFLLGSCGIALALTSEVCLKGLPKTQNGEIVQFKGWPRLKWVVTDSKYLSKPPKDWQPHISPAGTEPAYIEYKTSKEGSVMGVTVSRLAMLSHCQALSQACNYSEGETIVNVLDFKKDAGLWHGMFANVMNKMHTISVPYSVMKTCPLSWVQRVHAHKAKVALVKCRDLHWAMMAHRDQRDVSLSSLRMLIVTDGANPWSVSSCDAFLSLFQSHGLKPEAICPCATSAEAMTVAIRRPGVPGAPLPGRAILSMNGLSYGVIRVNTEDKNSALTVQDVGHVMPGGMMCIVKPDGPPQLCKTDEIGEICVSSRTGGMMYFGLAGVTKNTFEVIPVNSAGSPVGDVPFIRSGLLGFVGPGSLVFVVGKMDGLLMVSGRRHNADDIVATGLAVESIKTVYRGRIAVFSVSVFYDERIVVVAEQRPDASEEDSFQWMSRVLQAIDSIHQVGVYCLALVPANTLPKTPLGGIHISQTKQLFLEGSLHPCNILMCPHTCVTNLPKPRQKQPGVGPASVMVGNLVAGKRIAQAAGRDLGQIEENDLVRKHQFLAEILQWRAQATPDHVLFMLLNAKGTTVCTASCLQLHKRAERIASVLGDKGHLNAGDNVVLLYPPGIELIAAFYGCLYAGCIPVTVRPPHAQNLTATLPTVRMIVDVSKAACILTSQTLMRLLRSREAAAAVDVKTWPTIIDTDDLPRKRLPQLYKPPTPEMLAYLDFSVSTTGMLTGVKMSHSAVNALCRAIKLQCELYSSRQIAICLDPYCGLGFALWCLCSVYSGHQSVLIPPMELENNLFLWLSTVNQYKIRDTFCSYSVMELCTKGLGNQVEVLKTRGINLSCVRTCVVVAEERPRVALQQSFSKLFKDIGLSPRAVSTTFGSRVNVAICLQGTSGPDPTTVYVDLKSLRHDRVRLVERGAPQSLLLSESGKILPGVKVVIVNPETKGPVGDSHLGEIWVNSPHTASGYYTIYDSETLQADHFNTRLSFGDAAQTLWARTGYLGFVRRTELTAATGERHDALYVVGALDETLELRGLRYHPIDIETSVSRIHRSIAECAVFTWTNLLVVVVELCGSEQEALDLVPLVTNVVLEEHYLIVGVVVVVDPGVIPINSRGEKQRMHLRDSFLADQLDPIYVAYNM
UniProt Q9P2B4: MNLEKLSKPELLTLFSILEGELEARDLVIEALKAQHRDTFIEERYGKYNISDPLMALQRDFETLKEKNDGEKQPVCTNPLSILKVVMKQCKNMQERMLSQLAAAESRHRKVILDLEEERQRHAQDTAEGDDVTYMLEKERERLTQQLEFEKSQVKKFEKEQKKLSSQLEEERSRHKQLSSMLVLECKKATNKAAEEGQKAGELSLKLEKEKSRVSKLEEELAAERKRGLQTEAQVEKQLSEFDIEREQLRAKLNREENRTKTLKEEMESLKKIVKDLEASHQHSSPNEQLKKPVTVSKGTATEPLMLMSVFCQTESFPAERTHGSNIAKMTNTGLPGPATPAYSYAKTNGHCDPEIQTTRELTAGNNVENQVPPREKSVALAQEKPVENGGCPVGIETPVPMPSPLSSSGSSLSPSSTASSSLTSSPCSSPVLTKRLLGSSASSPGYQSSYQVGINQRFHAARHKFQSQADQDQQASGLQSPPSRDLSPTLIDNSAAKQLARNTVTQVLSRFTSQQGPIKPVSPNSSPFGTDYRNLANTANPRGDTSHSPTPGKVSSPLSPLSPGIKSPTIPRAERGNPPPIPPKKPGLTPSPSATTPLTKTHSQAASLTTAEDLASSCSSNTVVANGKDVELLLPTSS
UniProt Q9P2E5: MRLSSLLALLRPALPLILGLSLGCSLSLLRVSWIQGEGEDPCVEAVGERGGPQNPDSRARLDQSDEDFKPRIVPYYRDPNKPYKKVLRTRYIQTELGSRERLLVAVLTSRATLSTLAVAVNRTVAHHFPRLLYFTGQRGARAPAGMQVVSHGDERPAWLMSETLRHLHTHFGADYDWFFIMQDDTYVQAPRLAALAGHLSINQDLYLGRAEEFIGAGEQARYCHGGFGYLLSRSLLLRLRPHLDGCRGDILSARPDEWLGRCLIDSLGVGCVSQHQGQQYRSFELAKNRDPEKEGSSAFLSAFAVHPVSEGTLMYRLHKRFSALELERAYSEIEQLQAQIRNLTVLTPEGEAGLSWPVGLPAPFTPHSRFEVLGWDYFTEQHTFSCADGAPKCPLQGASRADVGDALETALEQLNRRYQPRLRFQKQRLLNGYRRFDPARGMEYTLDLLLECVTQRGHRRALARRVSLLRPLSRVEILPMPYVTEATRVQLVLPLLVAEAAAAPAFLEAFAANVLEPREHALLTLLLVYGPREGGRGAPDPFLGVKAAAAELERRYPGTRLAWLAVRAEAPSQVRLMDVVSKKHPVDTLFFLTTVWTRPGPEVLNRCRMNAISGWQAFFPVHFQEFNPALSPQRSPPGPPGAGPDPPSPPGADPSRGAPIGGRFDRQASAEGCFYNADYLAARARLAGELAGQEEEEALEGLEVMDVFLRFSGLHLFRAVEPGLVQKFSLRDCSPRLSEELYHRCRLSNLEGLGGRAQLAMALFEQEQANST
UniProt Q9P0R6: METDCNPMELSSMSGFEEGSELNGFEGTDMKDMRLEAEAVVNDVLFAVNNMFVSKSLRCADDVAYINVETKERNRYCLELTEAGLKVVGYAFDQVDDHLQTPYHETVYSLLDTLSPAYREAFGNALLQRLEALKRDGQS
UniProt Q9UJN7: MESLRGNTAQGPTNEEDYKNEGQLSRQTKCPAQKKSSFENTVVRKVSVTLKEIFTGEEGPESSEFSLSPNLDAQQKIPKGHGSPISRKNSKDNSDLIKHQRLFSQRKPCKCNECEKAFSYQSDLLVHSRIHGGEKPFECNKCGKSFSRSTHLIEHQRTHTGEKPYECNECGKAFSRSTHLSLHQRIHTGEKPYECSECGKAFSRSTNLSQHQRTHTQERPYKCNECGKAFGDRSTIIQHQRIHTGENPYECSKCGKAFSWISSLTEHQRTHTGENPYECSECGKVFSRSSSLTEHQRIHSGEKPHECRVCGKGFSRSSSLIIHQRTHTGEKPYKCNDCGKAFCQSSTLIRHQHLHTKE

Compound in the assay: CN[C@@H]1C[C@H]2O[C@@](C)([C@@H]1OC)n1c3ccccc3c3c4c(c5c6ccccc6n2c5c31)C(=O)NC4 [staurosporine]
In words: log2 fold change of tryptic peptide abundance, ligand vs vehicle (limited proteolysis) (log2 ratio); higher = more trypsin-susceptible (destabilized). The note with it: ligand concentration: 20 uM; sample: K562 cleared lysate; digestion: 4 min, 22 C (HT-PELSA RT4min, Orbitrap Astral).
On to “RAI14 (peptide sequence: AAMTDAMVPR, peptide start residue: 777) (UniProt Q9P0K7)”, for which the log2 fold change worked out at 0.393.
Under “ATP6V1H (peptide sequence: TFINLMTHICK, peptide start residue: 76) (UniProt Q9UI12)” stands 0.275.
For the target “CXXC1 (peptide sequence: RAGSGTGVGAMLAR, peptide start residue: 121) (UniProt Q9P0U4)”, the log2 fold change was found to be 0.432.
For “LIMA1 (peptide sequence: KGTLTVLKK, peptide start residue: 66) (UniProt Q9UHB6)” the value was 0.585; for “VPS18 (peptide sequence: AKEAEGGAATAGPSR, peptide start residue: 915) (UniProt Q9P253)”, -0.555; for “EPS15L1 (peptide sequence: LSQLHESR, peptide start residue: 547) (UniProt Q9UBC2)”, 0.428.
For “COQ3 (peptide sequence: SFDPVLDKR, peptide start residue: 189) (UniProt Q9NZJ6)” the value was 0.0422; for “NUFIP1 (peptide sequence: LDTPEEIAR, peptide start residue: 230) (UniProt Q9UHK0)”, -0.0899; for “BAIAP2L1 (peptide sequence: SVSVATGLNMMKK, peptide start residue: 329) (UniProt Q9UHR4)”, 0.556.
Turning to “UniProt Q9UEE5 (peptide sequence: GLSGPCRPPPPPQAR, peptide start residue: 26)”, the log2 fold change came out at 0.529.
Regarding “VPS28 (peptide sequence: IKEDRPITIK, peptide start residue: 110) (UniProt Q9UK41)”, the log2 fold change turned out to be 0.378.
“OGFR (peptide sequence: CKFVWGPQDK, peptide start residue: 282) (UniProt Q9NZT2)”: the log2 fold change is 0.333.
Under “UniProt Q9UHJ3 (peptide sequence: EVLTLLINAAYKPSR, peptide start residue: 540)” stands 0.231; under “STIM2 (peptide sequence: VYNGILEK, peptide start residue: 670) (UniProt Q9P246)”, -0.0614.
For “FAM8A1 (peptide sequence: GPPTTAVPCPR, peptide start residue: 30) (UniProt Q9UBU6)” the value was -0.19; for “RCOR3 (peptide sequence: KEGNTEQPVQTSK, peptide start residue: 181) (UniProt Q9P2K3)”, -0.272.
For the target “TJP2 (peptide sequence: GSYGSDAEEEEYRQQLSEHSKR, peptide start residue: 1155) (UniProt Q9UDY2)”, the log2 fold change came out at 0.855.
For “DIP2B (peptide sequence: AQLAELELELSEGDITQK, peptide start residue: 22) (UniProt Q9P265)” the value was -0.32; for “CTTNBP2NL (peptide sequence: VILDLEEER, peptide start residue: 111) (UniProt Q9P2B4)”, -0.413; for “LARS (peptide sequence: VLEPYPSKLSGLK, peptide start residue: 271) (UniProt Q9P2J5)”, 0.457.
Consider “MAD2L2 (peptide sequence: TMTSDILK, peptide start residue: 191) (UniProt Q9UI95)”, for which the log2 fold change amounted to 0.0776.
Regarding “CHPF2 (peptide sequence: AVEPGLVQK, peptide start residue: 719) (UniProt Q9P2E5)”, the log2 fold change was determined as 0.287.
As for “GSKIP (peptide sequence: YCLELTEAGLK, peptide start residue: 76) (UniProt Q9P0R6)”, the log2 fold change turned out to be 0.0558.
For the target “ZNF391 (peptide sequence: THTGENPYECSECGK, peptide start residue: 270) (UniProt Q9UJN7)”, the log2 fold change is -0.586.
For the target “FEZ2 (peptide sequence: SSTGSYEER, peptide start residue: 204) (UniProt Q9UHY8)”, the log2 fold change was -0.463.
“COPG2 (peptide sequence: LFQSNDQTLRR, peptide start residue: 76) (UniProt Q9UBF2)”: the log2 fold change is 0.272.
In the case of “USP25 (peptide sequence: TLLEQFGDR, peptide start residue: 824) (UniProt Q9UHP3)”, the log2 fold change was 0.444.

Source of the values: the supplement of paper PMC12819154, “High-throughput peptide-centric local stability assay extends protein–ligand identification to membrane proteins, tissues and bacteria” (Nature Structural & Molecular Biology, 2025).
